In patent publication US8598325B2, “Solid-phase microextraction coatings and methods for their preparation” (priority 2002, dated 2013):

Experiments:
[1] = DI-SPME extraction of triazole pesticides from grape matrix with commercial SPME fibres; settings: DI mode, 30 min at 30° C., mean ± SD (n=3)
[2] = HS-SPME extraction of triazole pesticides from grape matrix with commercial SPME fibres; settings: HS mode, 60 min at 70° C., mean ± SD (n=3)
[3] = HS-SPME, 100 μg/L aqueous solution, at or near equilibrium

Structure (SMILES): CC(C)(C)C(O)C(Oc1ccc(Cl)cc1)n1cncn1 (centres unmarked) [Triadimenol, triadimenol]
- Amount Extracted ([1]; Car/PDMS 75 μm fibre): 0.20 ± 0.08%
- Amount Extracted ([1]; DVB/Car/PDMS 50/30 μm fibre): 1.4 ± 0.2%
- Amount Extracted ([1]; PA 85 μm fibre): 1.2 ± 0.2%
- Amount Extracted ([1]; PDMS 100 μm fibre): 0.4 ± 0.2%
- Amount Extracted ([1]; PDMS/DVB 65 μm fibre): 4.2 ± 0.3%
- Amount Extracted ([2]; PDMS/DVB 65 μm fibre): 0.04 ± 0.01%

Structure (SMILES): CCCC(Cn1cncn1)c1ccc(Cl)cc1Cl (centres unmarked) [Penconazole, penconazole]
- Amount Extracted ([1]; Car/PDMS 75 μm fibre): 0.40 ± 0.09%
- Amount Extracted ([1]; DVB/Car/PDMS 50/30 μm fibre): 3.0 ± 0.2%
- Amount Extracted ([1]; PA 85 μm fibre): 4.3 ± 0.4%
- Amount Extracted ([1]; PDMS 100 μm fibre): 4.6 ± 0.2%
- Amount Extracted ([1]; PDMS/DVB 65 μm fibre): 6.7 ± 0.6%
- Amount Extracted ([2]; DVB/Car/PDMS 50/30 μm fibre): 0.31 ± 0.02%
- Amount Extracted ([2]; PA 85 μm fibre): 0.45 ± 0.01%
- Amount Extracted ([2]; PDMS 100 μm fibre): 0.38 ± 0.03%
- Amount Extracted ([2]; PDMS/DVB 65 μm fibre): 0.51 ± 0.07%

Structure (SMILES): CC(C)(C)C(=O)C(Oc1ccc(Cl)cc1)n1cncn1 (centres unmarked) [Triadimefon, triadimefon]
- Amount Extracted ([1]; Car/PDMS 75 μm fibre): 2.0 ± 0.5%
- Amount Extracted ([1]; DVB/Car/PDMS 50/30 μm fibre): 9.4 ± 0.6%
- Amount Extracted ([1]; PA 85 μm fibre): 8.2 ± 0.6%
- Amount Extracted ([1]; PDMS 100 μm fibre): 5.6 ± 0.7%
- Amount Extracted ([1]; PDMS/DVB 65 μm fibre): 15.2 ± 0.8%
- Amount Extracted ([2]; DVB/Car/PDMS 50/30 μm fibre): 0.16 ± 0.01%
- Amount Extracted ([2]; PA 85 μm fibre): 0.17 ± 0.01%
- Amount Extracted ([2]; PDMS 100 μm fibre): 0.14 ± 0.01%
- Amount Extracted ([2]; PDMS/DVB 65 μm fibre): 0.20 ± 0.01%

Structure (SMILES): Cc1ccccc1C [o-xylene]
- Amount extracted by the PDMS-coated SPME fibre compared to commercial PDMS/DVB fibre [3]: around 20%

Structure (SMILES): CCCCC(O)(Cn1cncn1)c1ccc(Cl)cc1Cl (centres unmarked) [Hexaconazole, hexaconazole]
- Amount Extracted ([1]; Car/PDMS 75 μm fibre): 0.30 ± 0.02%
- Amount Extracted ([1]; DVB/Car/PDMS 50/30 μm fibre): 1.2 ± 0.2%
- Amount Extracted ([1]; PA 85 μm fibre): 1.8 ± 0.3%
- Amount Extracted ([1]; PDMS 100 μm fibre): 1.2 ± 0.2%
- Amount Extracted ([1]; PDMS/DVB 65 μm fibre): 4.8 ± 0.3%
- Amount Extracted ([2]; DVB/Car/PDMS 50/30 μm fibre): 0.1 ± 0.01%
- Amount Extracted ([2]; PA 85 μm fibre): 0.16 ± 0.01%
- Amount Extracted ([2]; PDMS 100 μm fibre): 0.14 ± 0.01%
- Amount Extracted ([2]; PDMS/DVB 65 μm fibre): 0.19 ± 0.01%

Structure (SMILES): c1ccccc1 [benzene]
- Amount extracted by the PDMS-coated SPME fibre compared to commercial PDMS/DVB fibre [3]: did not statistically differ
